PubChem BioAssay AID1508588 – Peter MacCallum Cancer Centre, 2020
In all, the deposit lists about 18,000 reagents; shown is an unselected part. 790 of them (4.4%) were called active. 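Calls rest on a combination of fold-change classes in drug and vehicle arms, not all shown here.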

Test: 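Which gene losses make BRAF-mutant melanoma cells more responsive to vemurafenib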 (primary screen)
Cell system: human WM266.4 melanoma cells (BRAF V600 mutant)
Reagents: siRNA pool against human genes, 40 nM
Duration: 96 h from transfection to read-out
Conditions: vemurafenib 300 nM (about IC25), added 48 h after transfection, for 48 h; comparison arm got DMSO vehicle only
Measured: 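Ratios to non-targeting siRNA for cell gain, counted as DAPI nuclei after minus before drug and averaged over two replicates, and for absorbance-read medium lactate per cell; both binned into fold-change classes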
Scale: cell gain with vemurafenib: higher = more cell gain than with non-targeting siRNA; lactate per cell with vemurafenib: higher = more lactate made per cell
Active means: 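a knock-down counts as enhancing when its fold-change classes with vehicle and with vemurafenib, taken together, show a stronger drug effect on cell gain or lactate per cell; exact class pairs not stated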
Calls: active = enhances vemurafenib effect; inactive = no enhancement seen

Target gene	cell gain with vemurafenib	lactate per cell with vemurafenib	Outcome
CEACAM1 (CEA cell adhesion molecule 1)	0.74	0.86	inactive
JUN (Jun proto-oncogene, AP-1 transcription factor subunit)	0.68	0.34	inactive
SLC5A5	0.57	0.94	inactive
DAGLA (diacylglycerol lipase alpha)	0.87	0.86	inactive
GPX5 (glutathione peroxidase 5)	0.33	2.08	inactive
TIPE1 (TNF alpha induced protein 8 like 1)	0.31	1.27	inactive
IRF7 (interferon regulatory factor 7)	0.85	0.78	inactive
ARID4B (AT-rich interaction domain 4B)	0.65	1.17	inactive
MYF5 (myogenic factor 5)	0.25	1.73	inactive
SPATA16 (spermatogenesis associated 16)	0.3	0.66	inactive
BPIFA3 (BPI fold containing family A member 3)	0.98	0.83	inactive
LRRN1 (leucine rich repeat neuronal 1)	0.42	0.5	inactive
ATG10 (autophagy related 10)	0.73	1.09	inactive
B3GALNT2 (beta-1,3-N-acetylgalactosaminyltransferase 2)	1.23	0.81	inactive
TACR3 (tachykinin receptor 3)	0.68	0.9	inactive
SELL (selectin L)	0	0	inactive
CD3E (CD3 epsilon subunit of T-cell receptor complex)	0.36	1.52	inactive
TRPV6	0.75	1.18	inactive
SRSF9 (serine and arginine rich splicing factor 9)	0.81	1	inactive
ALDH9A1 (aldehyde dehydrogenase 9 family member A1)	0.24	1.91	inactive
DNAJC21 (DnaJ heat shock protein family (Hsp40) member C21)	0.54	0.66	inactive
DAB2 (DAB adaptor protein 2)	0.2	1.92	inactive
MMD (monocyte to macrophage differentiation associated)	0.85	0.57	inactive
VAMP3 (vesicle associated membrane protein 3)	0.31	0.69	inactive
SV2B (synaptic vesicle glycoprotein 2B)	0.76	1.45	inactive
AREL1 (apoptosis resistant E3 ubiquitin protein ligase 1)	0.57	1.21	inactive
FAM43B (family with sequence similarity 43 member B)	0.61	1.04	inactive
LRRTM3 (leucine rich repeat transmembrane neuronal 3)	0.48	1.15	inactive
RUFY4 (RUN and FYVE domain containing 4)	0.19	0.7	active
TROAP (trophinin associated protein)	0.85	1.17	inactive
PPFIBP2 (PPFIB scaffold protein 2)	0.94	0.56	inactive
FANCM (FA complementation group M)	0.08	0.46	active
CCDC142 (coiled-coil domain containing 142)	0.64	0.62	inactive
WDR25 (WD repeat domain 25)	0.42	1.02	inactive
CSTL1 (cystatin like 1)	0.84	0.56	inactive
GSTO2 (glutathione S-transferase omega 2)	0.36	0.5	inactive
CPEB2 (cytoplasmic polyadenylation element binding protein 2)	0.14	0.94	inactive
SLPI (secretory leukocyte peptidase inhibitor)	0.86	0.72	inactive
ADGRG5 (adhesion G protein-coupled receptor G5)	0.25	0.52	inactive
OR2M5 (olfactory receptor family 2 subfamily M member 5)	0.6	0.46	inactive
ACAD11 (acyl-CoA dehydrogenase family member 11)	0.6	0.88	inactive
TM4SF1 (transmembrane 4 L six family member 1)	0.73	1.6	inactive
ELANE (elastase, neutrophil expressed)	0.41	1.39	inactive
MBD4 (methyl-CpG binding domain 4, DNA glycosylase)	0.77	0.8	inactive
RNF113B (ring finger protein 113B)	0.56	1.6	inactive
C22orf42 (chromosome 22 open reading frame 42)	0.52	0.64	inactive
THAP3 (THAP domain containing 3)	0.13	0.5	inactive
ZNF514 (zinc finger protein 514)	0.46	1.19	inactive
DEGS1 (delta 4-desaturase, sphingolipid 1)	0.23	2.73	inactive
FRAT2 (FRAT regulator of Wnt signaling pathway 2)	0.94	0.6	inactive
MAPKAP1 (MAPK associated protein 1)	0.34	0.68	inactive
APOL6 (apolipoprotein L6)	0.37	2.37	inactive
ZFTRAF1 (zinc finger TRAF-type and ring finger containing 1)	0.24	0.02	inactive
GSDME (gasdermin E)	0.91	0.76	inactive
LRRC1 (leucine rich repeat containing 1)	0.8	0.54	inactive
B4GALT1 (beta-1,4-galactosyltransferase 1)	0.5	1.07	inactive
TTYH1 (tweety family member 1)	0.76	1.05	inactive
PYGB (glycogen phosphorylase B)	1	1.31	inactive
DYRK1A	1.28	0.66	inactive
SMTNL2 (smoothelin like 2)	0.31	2.2	inactive
RHOH (ras homolog family member H)	0.42	1.01	inactive
DLK2 (delta like non-canonical Notch ligand 2)	1.12	0.49	inactive
ZNF343 (zinc finger protein 343)	0.94	1.03	inactive
MPHOSPH9 (M-phase phosphoprotein 9)	1.26	0.38	inactive
MCTP2 (multiple C2 and transmembrane domain containing 2)	0.89	0.74	inactive
PHLPP1 (PH domain and leucine rich repeat protein phosphatase 1)	0.85	0.57	inactive
CLTC (clathrin heavy chain)	0.47	2.18	inactive
CRISP3 (cysteine rich secretory protein 3)	0.54	0.9	inactive
ALOX12B (arachidonate 12-lipoxygenase, 12R type)	1.06	1.23	inactive
ZNF79 (zinc finger protein 79)	0.47	0.9	inactive
RPS9 (ribosomal protein S9)	0.88	0.87	inactive
NSD3 (nuclear receptor binding SET domain protein 3)	0.98	1.02	inactive
ITPK1 (inositol-tetrakisphosphate 1-kinase)	0.3	1.77	inactive
H1-1 (H1.1 linker histone, cluster member)	0.27	0.6	inactive
TFDP3 (transcription factor Dp family member 3)	0.99	1.02	inactive
GPR137 (G protein-coupled receptor 137)	0.85	0.55	inactive
LRRC27 (leucine rich repeat containing 27)	1.01	0.68	inactive
IL6 (interleukin 6)	0.84	0.59	inactive
CLN8 (CLN8 transmembrane ER and ERGIC protein)	0.74	1.7	inactive
FAM234A (family with sequence similarity 234 member A)	0.75	0.7	inactive
DNAJC4 (DnaJ heat shock protein family (Hsp40) member C4)	0.52	1.12	inactive
ZNF165 (zinc finger protein 165)	0.74	1.07	inactive
CD82 (CD82 molecule)	0.82	0.8	inactive
ZNF692 (zinc finger protein 692)	0.77	1.14	inactive

Part of the list above, showing only “cell gain with vemurafenib”.
C22orf42 (chromosome 22 open reading frame 42)	0.52
THAP3 (THAP domain containing 3)	0.13
ZNF514 (zinc finger protein 514)	0.46
DEGS1 (delta 4-desaturase, sphingolipid 1)	0.23
FRAT2 (FRAT regulator of Wnt signaling pathway 2)	0.94
MAPKAP1 (MAPK associated protein 1)	0.34
APOL6 (apolipoprotein L6)	0.37
ZFTRAF1 (zinc finger TRAF-type and ring finger containing 1)	0.24
GSDME (gasdermin E)	0.91
LRRC1 (leucine rich repeat containing 1)	0.8
B4GALT1 (beta-1,4-galactosyltransferase 1)	0.5
TTYH1 (tweety family member 1)	0.76
PYGB (glycogen phosphorylase B)	1
